According to patent US20060247261A1 (priority 2002, published 2006):
Some results were stated once for a whole list of compounds, not compound by compound.

Protein sequences, listed by entry. Tags and fused reporters are not part of them.
UniProt P34972, whole entry: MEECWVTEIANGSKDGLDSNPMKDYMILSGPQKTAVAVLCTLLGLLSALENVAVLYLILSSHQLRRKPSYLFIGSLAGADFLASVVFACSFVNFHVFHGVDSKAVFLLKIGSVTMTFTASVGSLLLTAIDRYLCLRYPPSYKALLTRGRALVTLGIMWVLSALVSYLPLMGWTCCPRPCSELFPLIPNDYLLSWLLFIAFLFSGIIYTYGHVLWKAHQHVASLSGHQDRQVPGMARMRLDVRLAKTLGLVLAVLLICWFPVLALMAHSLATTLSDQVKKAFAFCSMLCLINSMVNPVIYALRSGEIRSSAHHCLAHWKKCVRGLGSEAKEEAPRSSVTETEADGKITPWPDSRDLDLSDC

Target: T1, human cannabinoid CB2 receptor (Homo sapiens, UniProt P34972)
T1 construct: expressed in transfected cells; host or cells: Saccharomyces cerevisiae strain MMY23 (expresses a chimeric Gpa1/human Galpha-i3 G-protein alpha subunit)
Assay: Cannabinoid CB2 receptor agonist activity, yeast reporter assay
Type: cell-based
Conditions: relative to HU210; yeast cells expressing human CB2
From the text: Yeast (Saccharomyces cerevisiae) cells expressing the human cannabinoid CB2 receptor were generated by integration of an expression cassette into the ura3 chromosomal locus of yeast strain MMY23. This cassette consisted of DNA sequence encoding the human CB2 receptor flanked by the yeast GPD promoter to the 5′ end of CB2 and a yeast transcriptional terminator sequence to the 3′ end of CB2. MMY23 expresses a yeast/mammalian chimeric G-protein alpha subunit in which the C-terminal 5 amino acids of Gpa1 are replaced with the C-terminal 5 amino acids of human Gαi3 (as described in Brown et al. (2000), Yeast 16:11-22).
Agonists were prepared as 10 mM stocks in DMSO. […] Agonist solutions in DMSO (1% final assay volume) were transferred into black, clear bottom, microtitre plates from NUNC (96- or 384-well). […] Fluorescence was plotted against compound concentration and iteratively curve fitted using a four parameter fit to generate a concentration effect value.

Row | Structure (SMILES) | efficacy (Emax) at the cloned human cannabinoid CB2 receptor
1 | O=C(NCc1ccc(F)cc1)c1cnc(Nc2cccc(Cl)c2)nc1C(F)(F)F [Example 5, 2-(3-Chlorophenylamino)-4-trifluoromethylpyrimidine-5-carboxylic acid 4 fluorobenzyl-amide] | > 50%
2 | O=C(NCc1ccc(F)cc1)c1cnc(Nc2cccc(Br)c2)nc1C(F)(F)F [Example 24] | > 50%
